This is one part of the list.
Assays:
Test in all cases: log2 fold change, soluble protein after heating vs DMSO (PISA); higher = thermal stabilisation; K562 cells, 10 uM, 30 min; active = over 0.2 and 3.5 SD of the protein, either way, in both replicates (recomputed)
bafetinib = compound: Cc1ccc(NC(=O)c2ccc(CN3CC[C@H](N(C)C)C3)c(C(F)(F)F)c2)cc1Nc1nccc(-c2cncnc2)n1 [bafetinib]
Procedure, shortened: (§1)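 Thermal stability values are relative to control samples and come from duplicates. They are expressed as log2 fold changes. For measurement, K562 cells (2×10^6 cells/mL) received 10 μM compound for 30 min, and aliquots were heated for 3 min over 48°C-58°C, pooled, and extracted at 4°C in PBS with 0.5% NP-40. Soluble protein, the supernatant after 21,000xg for 90 min, was quantified by TMTpro 16plex LC-MS/MS with equalised channel sums.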

Chains of the proteins cited; added tags and fusions are not shown. Lines headed by an entry give the natural chain unless they say otherwise; changes in a name come on top.
UniProt P61758, whole entry, looked up: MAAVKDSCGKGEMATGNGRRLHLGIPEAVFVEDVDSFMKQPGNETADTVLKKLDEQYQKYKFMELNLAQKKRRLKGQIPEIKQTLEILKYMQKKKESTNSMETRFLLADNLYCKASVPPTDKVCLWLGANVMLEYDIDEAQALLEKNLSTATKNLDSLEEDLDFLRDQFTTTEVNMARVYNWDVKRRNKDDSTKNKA
UniProt Q70CQ2: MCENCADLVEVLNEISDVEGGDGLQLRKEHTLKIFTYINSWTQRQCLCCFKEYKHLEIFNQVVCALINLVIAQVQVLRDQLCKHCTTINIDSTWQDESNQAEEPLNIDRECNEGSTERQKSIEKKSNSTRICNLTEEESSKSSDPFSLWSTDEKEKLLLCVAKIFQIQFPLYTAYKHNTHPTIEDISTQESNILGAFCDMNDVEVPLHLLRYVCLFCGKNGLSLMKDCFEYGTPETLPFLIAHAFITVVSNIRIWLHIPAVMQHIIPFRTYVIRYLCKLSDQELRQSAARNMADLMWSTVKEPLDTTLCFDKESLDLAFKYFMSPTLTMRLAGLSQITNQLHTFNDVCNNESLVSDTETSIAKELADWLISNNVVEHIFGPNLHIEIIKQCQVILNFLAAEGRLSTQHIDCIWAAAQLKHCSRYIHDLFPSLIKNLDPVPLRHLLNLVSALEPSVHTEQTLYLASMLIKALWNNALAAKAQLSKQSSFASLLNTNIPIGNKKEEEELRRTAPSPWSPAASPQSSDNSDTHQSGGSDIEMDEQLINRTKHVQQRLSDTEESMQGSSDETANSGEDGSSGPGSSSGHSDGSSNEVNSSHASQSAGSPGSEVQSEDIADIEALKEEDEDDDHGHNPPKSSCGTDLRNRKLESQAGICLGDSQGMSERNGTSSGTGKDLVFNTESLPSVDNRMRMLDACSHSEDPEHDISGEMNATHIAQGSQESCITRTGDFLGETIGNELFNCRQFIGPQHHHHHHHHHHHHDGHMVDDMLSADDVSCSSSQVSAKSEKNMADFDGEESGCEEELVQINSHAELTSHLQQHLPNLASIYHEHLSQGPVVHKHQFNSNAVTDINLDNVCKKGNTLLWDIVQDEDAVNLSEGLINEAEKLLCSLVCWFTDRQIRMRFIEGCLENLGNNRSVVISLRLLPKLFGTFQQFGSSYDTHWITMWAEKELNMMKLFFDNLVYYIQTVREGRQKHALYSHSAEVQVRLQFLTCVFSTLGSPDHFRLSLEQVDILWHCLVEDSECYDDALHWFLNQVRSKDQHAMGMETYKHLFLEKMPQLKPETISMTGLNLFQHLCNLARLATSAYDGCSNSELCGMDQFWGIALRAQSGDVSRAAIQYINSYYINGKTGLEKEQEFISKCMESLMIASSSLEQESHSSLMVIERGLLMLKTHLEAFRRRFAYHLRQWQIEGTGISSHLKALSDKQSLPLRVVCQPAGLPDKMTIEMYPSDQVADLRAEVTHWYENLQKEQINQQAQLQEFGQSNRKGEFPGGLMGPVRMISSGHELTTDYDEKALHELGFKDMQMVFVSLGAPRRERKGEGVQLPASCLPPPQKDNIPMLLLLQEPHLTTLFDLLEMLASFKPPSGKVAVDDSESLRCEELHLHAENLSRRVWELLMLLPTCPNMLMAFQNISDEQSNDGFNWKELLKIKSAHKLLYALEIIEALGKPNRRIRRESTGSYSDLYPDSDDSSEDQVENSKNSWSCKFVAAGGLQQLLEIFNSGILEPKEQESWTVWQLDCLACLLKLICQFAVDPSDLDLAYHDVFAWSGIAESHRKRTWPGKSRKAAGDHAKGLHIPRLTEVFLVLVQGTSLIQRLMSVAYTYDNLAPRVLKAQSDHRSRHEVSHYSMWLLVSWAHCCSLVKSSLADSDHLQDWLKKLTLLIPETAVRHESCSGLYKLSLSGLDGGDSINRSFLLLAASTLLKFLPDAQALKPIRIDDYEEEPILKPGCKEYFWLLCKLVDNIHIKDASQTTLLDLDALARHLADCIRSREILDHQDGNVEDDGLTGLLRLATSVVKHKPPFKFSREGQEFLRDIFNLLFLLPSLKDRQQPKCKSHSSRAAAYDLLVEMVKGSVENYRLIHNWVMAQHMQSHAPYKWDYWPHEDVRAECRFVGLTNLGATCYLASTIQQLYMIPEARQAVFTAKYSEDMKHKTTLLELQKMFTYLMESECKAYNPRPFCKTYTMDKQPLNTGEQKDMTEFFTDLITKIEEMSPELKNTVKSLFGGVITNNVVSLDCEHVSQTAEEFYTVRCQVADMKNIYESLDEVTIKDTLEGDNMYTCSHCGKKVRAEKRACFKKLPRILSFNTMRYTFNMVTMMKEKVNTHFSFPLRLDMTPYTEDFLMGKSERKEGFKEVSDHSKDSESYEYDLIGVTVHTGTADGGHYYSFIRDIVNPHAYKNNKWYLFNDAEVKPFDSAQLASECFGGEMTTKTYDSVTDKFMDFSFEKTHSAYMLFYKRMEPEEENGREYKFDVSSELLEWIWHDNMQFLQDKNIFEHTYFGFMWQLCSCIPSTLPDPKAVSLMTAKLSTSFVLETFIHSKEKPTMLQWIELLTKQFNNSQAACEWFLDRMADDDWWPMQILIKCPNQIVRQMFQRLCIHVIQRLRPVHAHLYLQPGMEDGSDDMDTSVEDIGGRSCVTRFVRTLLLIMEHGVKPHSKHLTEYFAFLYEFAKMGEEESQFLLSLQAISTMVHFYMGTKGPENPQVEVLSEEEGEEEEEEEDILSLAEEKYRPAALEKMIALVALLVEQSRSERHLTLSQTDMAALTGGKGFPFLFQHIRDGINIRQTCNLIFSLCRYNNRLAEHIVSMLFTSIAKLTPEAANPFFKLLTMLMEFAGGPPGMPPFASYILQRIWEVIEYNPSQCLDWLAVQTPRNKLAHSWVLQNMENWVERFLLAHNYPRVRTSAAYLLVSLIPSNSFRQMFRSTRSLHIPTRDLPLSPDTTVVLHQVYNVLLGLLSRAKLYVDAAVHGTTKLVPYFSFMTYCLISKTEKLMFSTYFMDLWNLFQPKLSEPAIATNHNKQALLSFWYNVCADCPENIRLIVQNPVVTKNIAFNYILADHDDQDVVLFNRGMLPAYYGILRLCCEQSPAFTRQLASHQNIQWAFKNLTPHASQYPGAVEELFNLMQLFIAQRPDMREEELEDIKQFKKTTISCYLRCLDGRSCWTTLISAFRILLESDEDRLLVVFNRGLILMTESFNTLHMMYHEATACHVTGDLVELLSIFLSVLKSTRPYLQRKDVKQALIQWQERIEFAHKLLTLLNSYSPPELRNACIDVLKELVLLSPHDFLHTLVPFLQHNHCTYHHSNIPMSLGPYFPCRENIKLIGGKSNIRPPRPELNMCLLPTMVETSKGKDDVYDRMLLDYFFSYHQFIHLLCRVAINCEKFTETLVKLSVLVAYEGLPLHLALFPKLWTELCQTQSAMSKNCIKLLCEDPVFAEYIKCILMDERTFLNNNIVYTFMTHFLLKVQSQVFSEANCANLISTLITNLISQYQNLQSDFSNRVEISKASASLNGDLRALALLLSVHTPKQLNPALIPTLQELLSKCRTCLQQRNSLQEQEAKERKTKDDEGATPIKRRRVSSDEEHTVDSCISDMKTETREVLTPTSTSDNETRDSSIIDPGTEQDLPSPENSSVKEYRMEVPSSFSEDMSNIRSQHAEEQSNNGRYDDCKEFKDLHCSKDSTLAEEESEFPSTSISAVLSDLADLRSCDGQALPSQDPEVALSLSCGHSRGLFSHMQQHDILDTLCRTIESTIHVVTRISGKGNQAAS
UniProt Q9P0L0: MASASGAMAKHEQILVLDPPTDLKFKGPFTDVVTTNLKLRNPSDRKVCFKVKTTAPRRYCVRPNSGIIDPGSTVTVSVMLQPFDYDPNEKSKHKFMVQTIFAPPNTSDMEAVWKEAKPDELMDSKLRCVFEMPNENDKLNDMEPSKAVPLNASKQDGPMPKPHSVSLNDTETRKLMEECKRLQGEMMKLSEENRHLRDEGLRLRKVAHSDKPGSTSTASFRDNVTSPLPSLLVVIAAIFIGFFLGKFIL
UniProt Q9UDW1: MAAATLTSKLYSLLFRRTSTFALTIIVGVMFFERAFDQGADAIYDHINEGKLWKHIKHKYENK
UniProt P22695: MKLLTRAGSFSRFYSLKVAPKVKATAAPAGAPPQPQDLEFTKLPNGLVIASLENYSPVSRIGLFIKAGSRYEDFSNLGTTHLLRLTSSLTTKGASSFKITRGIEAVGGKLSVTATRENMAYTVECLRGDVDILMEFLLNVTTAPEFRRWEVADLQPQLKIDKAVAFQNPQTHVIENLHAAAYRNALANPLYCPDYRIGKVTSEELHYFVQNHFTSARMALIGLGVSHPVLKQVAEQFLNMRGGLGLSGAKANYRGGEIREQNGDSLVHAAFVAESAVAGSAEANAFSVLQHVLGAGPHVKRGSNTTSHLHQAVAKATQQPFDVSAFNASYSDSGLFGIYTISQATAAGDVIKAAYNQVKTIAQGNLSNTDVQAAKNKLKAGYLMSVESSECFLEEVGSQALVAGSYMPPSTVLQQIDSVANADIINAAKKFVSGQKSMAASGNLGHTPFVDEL
UniProt Q04323: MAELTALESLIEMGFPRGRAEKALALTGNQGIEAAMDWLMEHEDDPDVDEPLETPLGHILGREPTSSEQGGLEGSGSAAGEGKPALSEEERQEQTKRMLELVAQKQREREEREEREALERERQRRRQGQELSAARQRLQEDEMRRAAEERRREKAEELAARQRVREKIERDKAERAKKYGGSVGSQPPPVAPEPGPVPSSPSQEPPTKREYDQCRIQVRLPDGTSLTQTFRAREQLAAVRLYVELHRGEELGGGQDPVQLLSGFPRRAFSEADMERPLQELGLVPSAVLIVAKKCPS
UniProt Q9HAU5: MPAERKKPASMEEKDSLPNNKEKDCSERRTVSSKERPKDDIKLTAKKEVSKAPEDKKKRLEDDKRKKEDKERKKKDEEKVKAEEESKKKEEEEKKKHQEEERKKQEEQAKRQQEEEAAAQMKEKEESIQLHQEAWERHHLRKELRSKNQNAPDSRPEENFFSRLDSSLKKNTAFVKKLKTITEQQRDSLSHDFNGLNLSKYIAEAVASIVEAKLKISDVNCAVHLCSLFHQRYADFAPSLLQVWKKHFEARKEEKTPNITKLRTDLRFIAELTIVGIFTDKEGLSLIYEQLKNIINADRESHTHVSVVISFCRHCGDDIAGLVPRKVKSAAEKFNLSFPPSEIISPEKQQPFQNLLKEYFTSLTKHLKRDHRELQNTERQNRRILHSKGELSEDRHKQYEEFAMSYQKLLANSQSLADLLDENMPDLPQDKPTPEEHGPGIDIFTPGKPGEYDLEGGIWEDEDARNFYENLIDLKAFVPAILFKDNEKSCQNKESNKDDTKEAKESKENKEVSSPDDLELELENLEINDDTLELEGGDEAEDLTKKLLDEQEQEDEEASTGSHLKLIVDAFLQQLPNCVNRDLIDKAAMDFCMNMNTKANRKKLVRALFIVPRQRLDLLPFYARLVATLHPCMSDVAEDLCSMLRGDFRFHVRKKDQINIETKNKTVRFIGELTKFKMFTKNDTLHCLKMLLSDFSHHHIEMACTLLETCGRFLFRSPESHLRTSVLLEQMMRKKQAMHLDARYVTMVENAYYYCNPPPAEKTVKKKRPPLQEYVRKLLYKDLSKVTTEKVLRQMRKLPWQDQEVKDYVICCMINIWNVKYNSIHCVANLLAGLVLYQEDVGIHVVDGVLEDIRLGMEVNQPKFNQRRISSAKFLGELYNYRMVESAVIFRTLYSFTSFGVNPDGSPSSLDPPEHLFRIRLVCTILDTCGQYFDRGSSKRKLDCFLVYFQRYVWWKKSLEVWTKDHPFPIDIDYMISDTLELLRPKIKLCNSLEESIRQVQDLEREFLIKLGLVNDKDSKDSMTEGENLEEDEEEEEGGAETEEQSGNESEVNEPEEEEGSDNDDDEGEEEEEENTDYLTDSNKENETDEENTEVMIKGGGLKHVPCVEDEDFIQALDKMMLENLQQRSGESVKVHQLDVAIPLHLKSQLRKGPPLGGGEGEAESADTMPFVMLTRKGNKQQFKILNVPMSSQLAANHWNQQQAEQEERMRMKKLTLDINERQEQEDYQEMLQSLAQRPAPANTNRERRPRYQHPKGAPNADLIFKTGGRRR
UniProt P54578: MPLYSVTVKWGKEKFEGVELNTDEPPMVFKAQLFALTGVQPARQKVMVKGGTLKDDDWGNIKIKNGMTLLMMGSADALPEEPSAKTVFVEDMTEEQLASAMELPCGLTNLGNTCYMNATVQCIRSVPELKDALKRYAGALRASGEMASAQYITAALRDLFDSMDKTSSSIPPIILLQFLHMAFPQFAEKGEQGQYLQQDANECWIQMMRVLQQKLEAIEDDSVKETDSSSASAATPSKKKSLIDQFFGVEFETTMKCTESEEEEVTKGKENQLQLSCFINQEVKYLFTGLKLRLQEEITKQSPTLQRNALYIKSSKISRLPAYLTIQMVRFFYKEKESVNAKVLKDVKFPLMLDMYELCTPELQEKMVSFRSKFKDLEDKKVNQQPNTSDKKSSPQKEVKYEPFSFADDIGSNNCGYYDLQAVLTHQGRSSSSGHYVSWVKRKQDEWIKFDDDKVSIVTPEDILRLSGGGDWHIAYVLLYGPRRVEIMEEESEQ

[1] = compound: Cc1cccc(CC(=O)N2CCc3c2ccc(-c2cn(C)c4ncnc(N)c24)c3F)n1
Procedure, shortened: as §1

nilotinib = compound: Cc1cn(-c2cc(NC(=O)c3ccc(C)c(Nc4nccc(-c5cccnc5)n4)c3)cc(C(F)(F)F)c2)cn1 [nilotinib]
Procedure, shortened: as §1

[2] = compound: Cc1nc(Nc2n[nH]c3c2CN(C(=O)N[C@H](CN(C)C)c2ccccc2)C3(C)C)c2sccc2n1
Procedure, shortened: as §1

dasatinib = compound: Cc1nc(Nc2ncc(C(=O)Nc3c(C)cccc3Cl)s2)cc(N2CCN(CCO)CC2)n1 [dasatinib]
Procedure, shortened: as §1

[3] = compound: Cc1ncc(-c2ccnc(Nc3ccc(S(C)(=O)=O)cc3)n2)n1C(C)C
Procedure, shortened: as §1

[4] = compound: Cn1cc(-c2ccc3c(c2)CCN3C(=O)Cc2cccc(C(F)(F)F)c2)c2c(N)ncnc21
Procedure, shortened: as §1

[5] = compound: Cn1cc(-c2ccc3nnc(C(F)(F)c4ccc5ncccc5c4)n3n2)cn1
Procedure, shortened: as §1

tipifarnib = compound: Cn1cncc1[C@@](N)(c1ccc(Cl)cc1)c1ccc2c(c1)c(-c1cccc(Cl)c1)cc(=O)n2C [tipifarnib]
Procedure, shortened: as §1

mubritinib = compound: FC(F)(F)c1ccc(/C=C/c2nc(COc3ccc(CCCCn4ccnn4)cc3)co2)cc1 [mubritinib]
Procedure, shortened: as §1

[6] = compound: NC(=O)Nc1cc(-c2cccc(F)c2)sc1C(=O)N[C@H]1CCCNC1
Procedure, shortened: as §1

[7] = compound: NC(=O)c1cnc(N[C@@H]2CCCC[C@@H]2N)nc1Nc1cccc(-n2nccn2)c1
Procedure, shortened: as §1

[8] = compound: NC1(c2ccc(-c3nc4ccn5c(=O)[nH]nc5c4cc3-c3ccccc3)cc2)CCC1
Procedure, shortened: as §1

[9] = compound: NCC(=O)Nc1ccc(-n2nc(C(F)(F)F)cc2-c2ccc3c(ccc4ccccc43)c2)cc1
Procedure, shortened: as §1

entinostat = compound: Nc1ccccc1NC(=O)c1ccc(CNC(=O)OCc2cccnc2)cc1 [entinostat]
Procedure, shortened: as §1

vorinostat = compound: O=C(CCCCCCC(=O)Nc1ccccc1)NO [vorinostat]
Procedure, shortened: as §1

citarinostat = compound: O=C(CCCCCCNC(=O)c1cnc(N(c2ccccc2)c2ccccc2Cl)nc1)NO [citarinostat]
Procedure, shortened: as §1

silmitasertib = compound: O=C(O)c1ccc2c(c1)nc(Nc1cccc(Cl)c1)c1ccncc12 [silmitasertib]
Procedure, shortened: as §1

[10] = compound: O=C1NC(=O)C(c2cnc3ccccn23)=C1c1cn2c3c(cc(F)cc13)CN(C(=O)N1CCCCC1)CC2
Procedure, shortened: as §1

[11] = compound: c1cc(OCCN2CCCCC2)cc(-c2n[nH]c3ccc(-c4nnc[nH]4)cc23)c1
Procedure, shortened: as §1

Measured: log2 fold change

VBP1 (UniProt P61758)
inactive: bafetinib -0.055 | [1] -0.005 | nilotinib 0.015 | [2] -0.003 | dasatinib 0.057 | [3] -0.008 | [4] 0.003 | [5] 0.025 | tipifarnib 0.01 | mubritinib 0.033 | [6] 0.007 | [7] -0.005 | [8] 0.015 | [9] 0.04 | entinostat -0.002 | vorinostat -0.031 | citarinostat 0.012 | silmitasertib -0.018 | [10] -0.031 | [11] -0.004

USP34 (UniProt Q70CQ2)
inactive: bafetinib -0.004 | [1] -0.002 | nilotinib -0.054 | [2] 0.034 | dasatinib -0.141 | [3] -0.223 | [4] -0.012 | [5] 0.033 | tipifarnib -0.134 | mubritinib -0.049 | [6] 0.012 | [7] -0.08 | [8] -0.131 | [9] -0.02 | entinostat 0.024 | vorinostat 0.118 | citarinostat 0.123 | silmitasertib 0.045 | [10] -0.008 | [11] -0.074

UGGT1 (UniProt Q9NYU2)
inactive: bafetinib -0.005 | [1] -0.007 | nilotinib -0.015 | [2] 0.016 | dasatinib -0.007 | [3] -0.036 | [4] -0.017 | [5] -0.001 | tipifarnib -0.026 | mubritinib -0.043 | [6] 0.028 | [7] -0.025 | [8] -0.06 | [9] 0.017 | entinostat -0.001 | vorinostat -0.004 | citarinostat 0.047 | silmitasertib 0.01 | [10] -0.025 | [11] -0.035

Two successive records from above:
USP34 (UniProt Q70CQ2)
inactive: bafetinib -0.004 | [1] -0.002 | nilotinib -0.054 | [2] 0.034 | dasatinib -0.141 | [3] -0.223 | [4] -0.012 | [5] 0.033 | tipifarnib -0.134 | mubritinib -0.049 | [6] 0.012 | [7] -0.08 | [8] -0.131 | [9] -0.02 | entinostat 0.024 | vorinostat 0.118 | citarinostat 0.123 | silmitasertib 0.045 | [10] -0.008 | [11] -0.074

UGGT1 (UniProt Q9NYU2)
inactive: bafetinib -0.005 | [1] -0.007 | nilotinib -0.015 | [2] 0.016 | dasatinib -0.007 | [3] -0.036 | [4] -0.017 | [5] -0.001 | tipifarnib -0.026 | mubritinib -0.043 | [6] 0.028 | [7] -0.025 | [8] -0.06 | [9] 0.017 | entinostat -0.001 | vorinostat -0.004 | citarinostat 0.047 | silmitasertib 0.01 | [10] -0.025 | [11] -0.035

The list continues.

VAPA isoform 2 (UniProt Q9P0L0)
inactive: bafetinib -0.065 | [1] 0.007 | nilotinib 0.012 | [2] -0.021 | dasatinib 0.023 | [3] -0.022 | [4] -0.021 | [5] -0.009 | tipifarnib 0.04 | mubritinib 0.02 | [6] -0.028 | [7] -0.01 | [8] 0.02 | [9] -0.023 | entinostat 0 | vorinostat -0.021 | citarinostat 0.022 | silmitasertib 0.008 | [10] -0.114 | [11] -0.001

UQCR10 (UniProt Q9UDW1)
inactive: bafetinib -0.047 | [1] -0.011 | nilotinib -0.003 | [2] 0.02 | dasatinib -0.009 | [3] -0.059 | [4] 0.072 | [5] 0.084 | tipifarnib 0.007 | mubritinib -0.024 | [6] -0.053 | [7] -0.043 | [8] 0.076 | [9] 0.02 | entinostat -0.003 | vorinostat 0.187 | citarinostat 0.045 | silmitasertib -0.003 | [10] -0.067 | [11] -0.026

USP24 (UniProt Q9UPU5)
inactive: bafetinib 0.037 | [1] 0.034 | nilotinib 0.096 | [2] 0.007 | dasatinib -0.098 | [3] 0.09 | [4] 0.144 | [5] 0.105 | tipifarnib -0.072 | mubritinib 0.056 | [6] 0.18 | [7] 0.079 | [8] -0.053 | [9] 0.07 | entinostat -0.095 | vorinostat -0.012 | citarinostat 0.012 | silmitasertib 0.188 | [10] -0.2 | [11] 0.11

UQCRC2 (UniProt P22695)
inactive: bafetinib -0.015 | [1] 0.007 | nilotinib 0.008 | [2] 0.023 | dasatinib 0.022 | [3] -0.011 | [4] 0.035 | [5] 0.002 | tipifarnib -0.015 | mubritinib 0.016 | [6] 0.044 | [7] 0.013 | [8] 0.017 | [9] 0.051 | entinostat -0.021 | vorinostat 0 | citarinostat 0.018 | silmitasertib -0.028 | [10] -0.001 | [11] 0.009

USP5 (UniProt P45974)
inactive: bafetinib -0.06 | [1] 0.008 | nilotinib 0.001 | [2] -0.041 | dasatinib -0.023 | [3] -0.005 | [4] 0.023 | [5] 0.027 | tipifarnib 0.016 | mubritinib 0.043 | [6] -0.041 | [7] -0.047 | [8] -0.053 | [9] -0.047 | entinostat 0.003 | vorinostat -0.003 | citarinostat 0.03 | silmitasertib 0.015 | [10] -0.041 | [11] -0.031

UBXN1 (UniProt Q04323)
inactive: bafetinib -0.012 | [1] 0.012 | nilotinib -0.017 | [2] -0.019 | dasatinib -0.046 | [3] -0.007 | [4] -0.025 | [5] 0.05 | tipifarnib -0.016 | mubritinib 0.057 | [6] 0.004 | [7] -0.074 | [8] -0.088 | [9] -0.051 | entinostat 0.038 | vorinostat -0.016 | citarinostat 0.041 | silmitasertib 0.05 | [10] -0.012 | [11] -0.04

VAT1 (UniProt Q99536)
inactive: bafetinib 0.045 | [1] -0.001 | nilotinib 0.043 | [2] 0.002 | dasatinib 0.009 | [3] 0.011 | [4] 0.073 | [5] -0.006 | tipifarnib -0.056 | mubritinib 0.094 | [6] 0.003 | [7] 0.024 | [8] 0.011 | [9] 0.073 | entinostat -0.017 | vorinostat 0.005 | citarinostat 0.034 | silmitasertib -0.017 | [10] -0.014 | [11] -0.008

UPF2 (UniProt Q9HAU5)
inactive: bafetinib 0.193 | [1] 0 | nilotinib -0.106 | [2] 0.142 | dasatinib -0.016 | [3] 0.061 | [4] -0.143 | [5] -0.085 | tipifarnib 0.015 | mubritinib -0.071 | [6] -0.008 | [7] 0.063 | [8] 0.189 | [9] 0.056 | entinostat 0.037 | vorinostat -0.092 | citarinostat -0.055 | silmitasertib 0.119 | [10] 0.19 | [11] -0.238

UQCC1 (UniProt Q9NVA1)
inactive: bafetinib -0.052 | [1] -0.018 | nilotinib 0.017 | [2] -0.014 | dasatinib 0.023 | [3] -0.001 | [4] 0.021 | [5] 0.041 | tipifarnib 0.064 | mubritinib 0.065 | [6] -0.021 | [7] 0.02 | [8] 0.003 | [9] 0.031 | entinostat -0.011 | vorinostat 0.002 | citarinostat 0.021 | silmitasertib 0.012 | [10] -0.002 | [11] 0.006

UBE4B isoform 4 (UniProt O95155)
inactive: bafetinib -0.003 | [1] 0.053 | nilotinib -0.051 | [2] -0.011 | dasatinib -0.069 | [3] -0.024 | [4] -0.019 | [5] -0.011 | tipifarnib -0.024 | mubritinib 0.032 | [6] 0.005 | [7] -0.055 | [8] -0.113 | [9] -0.056 | entinostat 0.019 | vorinostat 0.023 | citarinostat 0.02 | silmitasertib 0.042 | [10] -0.082 | [11] -0.014

USP14 (UniProt P54578)
inactive: bafetinib -0.03 | [1] 0.012 | nilotinib -0.006 | [2] -0.026 | dasatinib -0.087 | [3] 0.015 | [4] -0.001 | [5] -0.065 | tipifarnib -0.067 | mubritinib 0.029 | [6] -0.008 | [7] -0.006 | [8] -0.161 | [9] -0.057 | entinostat 0.025 | vorinostat -0.03 | citarinostat 0.051 | silmitasertib 0.007 | [10] -0.029 | [11] 0.005

UFD1 isoform 1 (UniProt Q92890)
inactive: bafetinib -0.007 | [1] 0.01 | nilotinib 0.025 | [2] -0.019 | dasatinib 0.031 | [3] -0.003 | [4] 0.006 | [5] 0.002 | tipifarnib -0.046 | mubritinib 0.041 | [6] -0.001 | [7] -0.015 | [8] -0.03 | [9] -0.001 | entinostat 0.01 | vorinostat 0.003 | citarinostat 0.061 | silmitasertib -0.014 | [10] 0.014 | [11] 0.034
